Laboratory results taken from US12618846B2, “Method and device for imaging fluorescent proteins in near- and short-wave infrared” (HELMHOLTZ ZENTRUM MÜNCHEN—DEUTSCHES FORSCHUNGSZENTRUM FÜR …, priority 2019, dated 2026).

Experiments:
[1] = SWIR imaging (above 1000 nm) of vials of purified fluorescent proteins, signal per concentration
[2] = Fluorescent protein signal in context of autofluorescence of the lower back of mice; set-up: species or system mouse; details: inverse of signal over background; minimal protein concentration matching autofluorescence of mouse lower back, above 1000 nm

B1: tdTomato: tandem-dimer orange/red fluorescent protein derived from Discosoma sp., e.g. SEQ ID NO: 60 (also SEQ ID NO: 1, 7) (protein)
chain: MVSKGEEVIKEFMRFKVRMEGSMNGHEFEIEGEGEGRPYEGTQTAKLKVTKGGPLPFAWDILSPQFMYGSKAYVKHPADIPDYKKLSFPEGFKWERVMNFEDGGLVTVTQDSSLQDGTLIYKVKMRGTNFPPDGPVMQKKTMGWEASTERLYPRDGVLKGEIHQALKLKDGGHYLVEFKTIYMAKKPVQLPGYYYVDTKLDITSHNEDYTIVEQYERSEGRHHLFLGHGTGSTGSGSSGTASSEDNNMAVIKEFMRFKVRMEGSMNGHEFEIEGEGEGRPYEGTQTAKLKVTKGGPLPFAWDILSPQFMYGSKAYVKHPADIPDYKKLSFPEGFKWERVMNFEDGGLVTVTQDSSLQDGTLIYKVKMRGTNFPPDGPVMQKKTMGWEASTERLYPRDGVLKGEIHQALKLKDGGHYLVEFKTIYMAKKPVQLPGYYYVDTKLDITSHNEDYTIVEQYERSEGRHHLFLYGMDELYK
modifications: tdTomato
signal per conc. ([1]; emission above 1000 nm, counts normalised to excitation power [mW/cm^2], exposure time [ms], concentration [mu M], slope of linear fit): 1.72 ± 0.01 | emission beyond 1000 nm ([1]; excitation 470 nm, 565 nm, 660 nm respectively, InGaAs camera, 1000 nm long-pass): exhibit emission beyond 1000 nm | autofluorescence equiv. conc. [2]: 0.237 ± 0.05

Some compounds share one wording; it may come from a single statement.
